These are yes or no findings as the source states them, for the method shown. In cells and extracts the contact can be indirect. Some binding calls cover weakened binding; strength is not graded here.
Target: full-length GFP–CD2AP (not stated (a Xenopus CD2AP and a CD2AP of unnamed species were cloned)) (UniProt Q9Y5K6)
Assay: co-IP; anti-GFP immunoprecipitations from extracts of U2OS cells transiently transfected with GFP–CD2AP or GFP; immunoblot with anti-PAWS1

Protein sequences, listed by entry. Tags and fused reporters are not part of them.
UniProt Q9Y5K6: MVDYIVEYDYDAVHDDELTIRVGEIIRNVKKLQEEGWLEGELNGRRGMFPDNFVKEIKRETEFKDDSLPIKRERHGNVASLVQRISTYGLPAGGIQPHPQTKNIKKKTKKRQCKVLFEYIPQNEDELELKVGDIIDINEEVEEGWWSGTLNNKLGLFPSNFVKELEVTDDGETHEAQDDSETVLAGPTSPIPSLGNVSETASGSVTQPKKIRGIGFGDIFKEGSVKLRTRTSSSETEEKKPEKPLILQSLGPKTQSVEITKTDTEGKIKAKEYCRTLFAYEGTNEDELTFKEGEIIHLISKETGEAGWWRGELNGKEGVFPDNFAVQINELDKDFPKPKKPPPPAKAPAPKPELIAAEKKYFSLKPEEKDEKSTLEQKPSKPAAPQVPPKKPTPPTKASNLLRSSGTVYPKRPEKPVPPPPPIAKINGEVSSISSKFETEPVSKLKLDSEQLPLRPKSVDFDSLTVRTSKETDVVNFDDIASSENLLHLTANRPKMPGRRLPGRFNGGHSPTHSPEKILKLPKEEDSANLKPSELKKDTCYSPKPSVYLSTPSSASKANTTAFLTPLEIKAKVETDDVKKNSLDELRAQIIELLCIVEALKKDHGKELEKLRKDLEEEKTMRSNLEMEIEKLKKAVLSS

B1: endogenous PAWS1 (U2OS) (protein, UniProt A6ND36-1 1-823)
chain: MAFSQVQCLDDNHVNWRSSESKPEFFYSEEQRLALEALVARGRDAFYEVLKRENIRDFLSELELKRILETIEVYDPGSEDPRGTGPSQGPEDNGVGDGEEASGADGVPIEAEPLPSLEYWPQKSDRSIPQLDLGWPDTIAYRGVTRASVYMQPPIDGQAHIKEVVRKMISQAQKVIAVVMDMFTDVDIFKDLLDAGFKRKVAVYIIVDESNVKYFLHMCERACMHLGHLKNLRVRSSGGTEFFTRSATKFKGALAQKFMFVDGDRAVCGSYSFTWSAARTDRNVISVLSGQVVEMFDRQFQELYLMSHSVSLKGIPMEKEPEPEPIVLPSVVPLVPAGTVAKKLVNPKYALVKAKSVDEIAKISSEKQEAKKPLGLKGPALAEHPGELPELLPPIHPGLLHLERANMFEYLPTWVEPDPEPGSDILGYINIIDPNIWNPQPSQMNRIKIRDTSQASAQHQLWKQSQDSRPRPEPCPPPEPSAPQDGVPAENGLPQGDPEPLPPVPKPRTVPVADVLARDSSDIGWVLELPKEEAPQNGTDHRLPRMAGPGHAPLQRQLSVTQDDPESLGVGLPNGLDGVEEEDDDDYVTLSDQDSHSGSSGRGPGPRRPSVASSVSEEYFEVREHSVPLRRRHSEQVANGPTPPPRRQLSAPHITRGTFVGPQGGSPWAQSRGREEADALKRMQAQRSTDKEAQGQQFHHHRVPASGTRDKDGFPGPPRYRSAADSVQSSTRNAGPAMAGPHHWQAKGGQVPRLLPDPGSPRLAQNARPMTDGRATEEHPSPFGIPYSKLSQSKHLKARTGGSQWASSDSKRRAQAPRDRKDP
For B1, the binding was “binds”.

— paper PMC5818054
